# Experimental data taken from the supplement of paper PMC8728848.
# The list shows a part of the results.
# Legend:
# Assay in all cases: glycan array binding signal (z-score within array); higher = stronger binding
# Settings in all cases: glycan notation: IUPAC condensed, linker removed
# [1] = molecular target: Gal(b1-4)GlcNAc(b1-3)Gal(b1-4)GlcNAc(b1-2)[Gal(b1-4)GlcNAc(b1-3)Gal(b1-4)GlcNAc(b1-6)]Man(a1-6)[Gal(b1-4)GlcNAc(b1-3)Gal(b1-4)GlcNAc(b1-2)Man(a1-3)]Man(b1-4)GlcNAc(b1-4)GlcNAc
# In short: (§1)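 The binding signal is a Z-score computed within each array and averaged over linkers. Arrays of the same protein sequence at different concentrations or buffers were also averaged together. Data originate from 3228 arrays in the Consortium for Functional Glycomics database, kept only where the protein sequence was available.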
# [2] = molecular target: Gal(b1-4)GlcNAc(b1-3)Gal(b1-4)GlcNAc(b1-2)[Gal(b1-4)GlcNAc(b1-3)Gal(b1-4)GlcNAc(b1-6)]Man(a1-6)[Gal(b1-4)GlcNAc(b1-3)Gal(b1-4)GlcNAc(b1-2)Man(a1-3)]Man(b1-4)GlcNAc(b1-4)[Fuc(a1-6)]GlcNAc
# In short: as §1
# [3] = molecular target: Gal(b1-4)GlcNAc(b1-3)Gal(b1-4)GlcNAc(b1-3)Gal(b1-4)GlcNAc
# In short: as §1
# [4] = molecular target: Gal(b1-4)GlcNAc(b1-3)Gal(b1-4)GlcNAc(b1-3)Gal(b1-4)GlcNAc(b1-2)Man(a1-3)[Gal(b1-4)GlcNAc(b1-3)Gal(b1-4)GlcNAc(b1-3)Gal(b1-4)GlcNAc(b1-2)Man(a1-6)]Man(b1-4)GlcNAc(b1-4)GlcNAc
# In short: as §1
# [5] = molecular target: Gal(b1-4)GlcNAc(b1-3)Gal(b1-4)GlcNAc(b1-3)Gal(b1-4)GlcNAc(b1-2)Man(a1-3)[Gal(b1-4)GlcNAc(b1-3)Gal(b1-4)GlcNAc(b1-3)Gal(b1-4)GlcNAc(b1-2)Man(a1-6)]Man(b1-4)GlcNAc(b1-4)[Fuc(a1-6)]GlcNAc
# In short: as §1
# [6] = molecular target: Gal(b1-4)GlcNAc(b1-3)Gal(b1-4)GlcNAc(b1-3)Gal(b1-4)GlcNAc(b1-2)[Gal(b1-4)GlcNAc(b1-3)Gal(b1-4)GlcNAc(b1-3)Gal(b1-4)GlcNAc(b1-6)]Man(a1-6)[Gal(b1-4)GlcNAc(b1-3)Gal(b1-4)GlcNAc(b1-3)Gal(b1-4)GlcNAc(b1-2)Man(a1-3)]Man(b1-4)GlcNAc(b1-4)[Fuc(a1-6)]GlcNAc
# In short: as §1
# [7] = molecular target: Gal(b1-4)GlcNAc(b1-3)Gal(b1-4)GlcNAc(b1-3)Gal(b1-4)GlcNAc(b1-3)Gal(b1-4)GlcNAc(b1-2)Man(a1-3)[Gal(b1-4)GlcNAc(b1-3)Gal(b1-4)GlcNAc(b1-3)Gal(b1-4)GlcNAc(b1-3)Gal(b1-4)GlcNAc(b1-2)Man(a1-6)]Man(b1-4)GlcNAc(b1-4)GlcNAc
# In short: as §1
# [8] = molecular target: Gal(b1-4)GlcNAc(b1-3)Gal(b1-4)GlcNAc(b1-3)Gal(b1-4)GlcNAc(b1-3)Gal(b1-4)GlcNAc(b1-2)Man(a1-3)[Gal(b1-4)GlcNAc(b1-3)Gal(b1-4)GlcNAc(b1-3)Gal(b1-4)GlcNAc(b1-3)Gal(b1-4)GlcNAc(b1-2)Man(a1-6)]Man(b1-4)GlcNAc(b1-4)[Fuc(a1-6)]GlcNAc
# In short: as §1
# [9] = molecular target: Gal(b1-4)GlcNAc(b1-3)Gal(b1-4)GlcNAc(b1-3)Gal(b1-4)GlcNAc(b1-3)Gal(b1-4)GlcNAc(b1-2)[Gal(b1-4)GlcNAc(b1-3)Gal(b1-4)GlcNAc(b1-3)Gal(b1-4)GlcNAc(b1-3)Gal(b1-4)GlcNAc(b1-6)]Man(a1-6)[Gal(b1-4)GlcNAc(b1-3)Gal(b1-4)GlcNAc(b1-3)Gal(b1-4)GlcNAc(b1-3)Gal(b1-4)GlcNAc(b1-2)Man(a1-3)]Man(b1-4)GlcNAc(b1-4)[Fuc(a1-6)]GlcNAc
# In short: as §1
# [10] = molecular target: Gal(b1-4)GlcNAc(b1-3)Gal(b1-4)GlcNAc(b1-3)Gal(b1-4)GlcNAc(b1-3)Gal(b1-4)GlcNAc(b1-3)Gal(b1-4)GlcNAc(b1-2)Man(a1-3)[Gal(b1-4)GlcNAc(b1-3)Gal(b1-4)GlcNAc(b1-3)Gal(b1-4)GlcNAc(b1-3)Gal(b1-4)GlcNAc(b1-3)Gal(b1-4)GlcNAc(b1-2)Man(a1-6)]Man(b1-4)GlcNAc(b1-4)GlcNAc
# In short: as §1
# [11] = molecular target: Gal(b1-4)GlcNAc(b1-3)Gal(b1-4)GlcNAc(b1-3)Gal(b1-4)GlcNAc(b1-3)Gal(b1-4)GlcNAc(b1-3)Gal(b1-4)GlcNAc(b1-2)Man(a1-3)[Gal(b1-4)GlcNAc(b1-3)Gal(b1-4)GlcNAc(b1-3)Gal(b1-4)GlcNAc(b1-3)Gal(b1-4)GlcNAc(b1-3)Gal(b1-4)GlcNAc(b1-2)Man(a1-6)]Man(b1-4)GlcNAc(b1-4)[Fuc(a1-6)]GlcNAc
# In short: as §1
# [12] = molecular target: Gal(b1-4)GlcNAc(b1-3)Gal(b1-4)GlcNAc(b1-3)Gal(b1-4)GlcNAc(b1-3)Gal(b1-4)GlcNAc(b1-3)Gal(b1-4)GlcNAc(b1-2)[Gal(b1-4)GlcNAc(b1-3)Gal(b1-4)GlcNAc(b1-3)Gal(b1-4)GlcNAc(b1-3)Gal(b1-4)GlcNAc(b1-3)Gal(b1-4)GlcNAc(b1-6)]Man(a1-6)[Gal(b1-4)GlcNAc(b1-3)Gal(b1-4)GlcNAc(b1-3)Gal(b1-4)GlcNAc(b1-3)Gal(b1-4)GlcNAc(b1-3)Gal(b1-4)GlcNAc(b1-2)Man(a1-3)]Man(b1-4)GlcNAc(b1-4)[Fuc(a1-6)]GlcNAc
# In short: as §1
# [13] = molecular target: Gal(b1-4)GlcNAc(b1-3)Gal(b1-4)GlcNAc(b1-3)Gal(b1-4)GlcNAc(b1-3)Gal(b1-4)GlcNAc(b1-3)Gal(b1-4)GlcNAc(b1-3)Gal(b1-4)GlcNAc(b1-2)Man(a1-3)[Gal(b1-4)GlcNAc(b1-3)Gal(b1-4)GlcNAc(b1-3)Gal(b1-4)GlcNAc(b1-3)Gal(b1-4)GlcNAc(b1-3)Gal(b1-4)GlcNAc(b1-3)Gal(b1-4)GlcNAc(b1-2)Man(a1-6)]Man(b1-4)GlcNAc(b1-4)GlcNAc
# In short: as §1
# [14] = molecular target: Gal(b1-4)GlcNAc(b1-3)Gal(b1-4)GlcNAc(b1-3)GalNAc
# In short: as §1
# [15] = molecular target: Gal(b1-4)GlcNAc(b1-3)Gal(b1-4)GlcNAc(b1-3)[Gal(b1-4)GlcNAc(b1-3)Gal(b1-4)GlcNAc(b1-6)]GalNAc
# In short: as §1
# [16] = molecular target: Gal(b1-4)GlcNAc(b1-3)Gal(b1-4)GlcNAc(b1-6)[Gal(b1-3)]GalNAc
# In short: as §1
# [17] = molecular target: Gal(b1-4)GlcNAc(b1-3)Gal(b1-4)[Fuc(a1-3)]GlcNAc(b1-3)Gal(b1-4)[Fuc(a1-3)]GlcNAc
# In short: as §1
# [18] = molecular target: Gal(b1-4)GlcNAc(b1-3)GalNAc
# In short: as §1
# [19] = molecular target: Gal(b1-4)GlcNAc(b1-3)[Fuc(a1-3)GlcNAc(b1-6)]Gal(b1-4)Glc
# In short: as §1
# [20] = molecular target: Gal(b1-4)GlcNAc(b1-3)[Gal(b1-4)GlcNAc(b1-6)]Gal(b1-4)GlcNAc
# In short: as §1
# [21] = molecular target: Gal(b1-4)GlcNAc(b1-3)[GlcNAc(b1-6)]Gal(b1-4)GlcNAc
# In short: as §1
# [22] = molecular target: Gal(b1-4)GlcNAc(b1-6)Gal(b1-4)GlcNAc
# In short: as §1
# [23] = molecular target: Gal(b1-4)GlcNAc(b1-6)GalNAc
# In short: as §1
# [24] = molecular target: Gal(b1-4)GlcNAc(b1-6)[Gal(b1-3)]GalNAc
# In short: as §1
# [25] = molecular target: Gal(b1-4)GlcNAc(b1-6)[Gal(b1-4)GlcNAc(b1-3)]GalNAc
# In short: as §1
# Gal(b1-4)GlcNAc6P = molecular target: Gal(b1-4)GlcNAc6P
# In short: as §1
# Gal(b1-6)Gal = molecular target: Gal(b1-6)Gal
# In short: as §1
# Gal3S(b1-3)GalNAc = molecular target: Gal3S(b1-3)GalNAc
# In short: as §1
# Gal3S(b1-3)GlcNAc = molecular target: Gal3S(b1-3)GlcNAc
# In short: as §1
# [26] = molecular target: Gal3S(b1-3)[Fuc(a1-4)]GlcNAc
# In short: as §1
binder,measurement,setting,value
Awp1 (Candida glabrata) (protein) MSLITIFAFLIKATLVLSLDILTPTTLTGDQTFNEDVSVVSSLTLNDGSQYLFNNLLQIAPSSASVTANALAAVSVFTFSLPPSSSLSNSGTLIISNSNTGPSTEQHIVITPNVMANTGTITLSLAHTNTDSSSTLIIDPVTFYNTGTINYESIGSETNDPSLTGNILSIGSSGRTLQNLGTINLNAANSYYLLGTITENSGSINVQKGFLYVNALDFIGNTINLSTTTALAFISPVSQVVRVRGVFFGNIIASVGSSGTFSYNTQTGILTVTTNGVYSYDIGCGYNPALMSGQQETLSFQGNPYDTFLVLVNQPIPSDLTCAAVSSSITPSSSVEPSSSVVPSSSVEPSSSVEPSSSVEPSSSVEPSSSVEPSSSVEPSSSVEPSSSVEPSSSVEPSSSVEPSSSVEPSSSVEPSSSVEPSSSVEPSSSVEPSSSVEPSSSVEPSSSVEPSSSVEPSSLIVPSSSVEPSSSVLPSSSVVPSSSVEPSTPPIPSSSVEPSSSVVPSSPAVPSSSVEPSTPPIPSSSVVSASVFDTSSTLPSSPSVPPSSVSPSTISTPSSSAAPSSFCPTCVSSGTPPAPSSSAIVPTSSAGGGNGGDNREPGAAGQPGAAGQPGAAGQPGAAGQPGAAGQPGAAGQPGAAGQPGAAGQPGAAGQPGAAGQPGAGFGVGSEQPTPGAGAGSGSADGNQSGTGSGTGNGQQGSGQAGSGQAGSGQEGSGQAGSGQAGSGQAGSGQAGSGQAGLDNTASGQSEGGQASAMDGDQSGRDGQSNSGSLLQPNAQQGTGSGTGSDIGADQASGESPGQIGDAQPGSGTDQSSGRHSLAAEARTSQSHSLAADARTRSTTRQTSVIAPDTAPGTASGTAPGTAPGTAVVTTFHGCGTVNHKGMINILLALALLVLL,glycan array binding signal (z-score),[1],-0.003
same,glycan array binding signal (z-score),[2],-0.77
same,glycan array binding signal (z-score),[3],1.27
same,glycan array binding signal (z-score),[4],1.2
same,glycan array binding signal (z-score),[5],-0.421
same,glycan array binding signal (z-score),[6],0.728
same,glycan array binding signal (z-score),[7],-0.315
same,glycan array binding signal (z-score),[8],2.42
same,glycan array binding signal (z-score),[9],0.79
same,glycan array binding signal (z-score),[10],0.16
same,glycan array binding signal (z-score),[11],1.18
same,glycan array binding signal (z-score),[12],0.917
same,glycan array binding signal (z-score),[13],-0.272
same,glycan array binding signal (z-score),[14],0.867
same,glycan array binding signal (z-score),[15],0.058
same,glycan array binding signal (z-score),[16],0.7
same,glycan array binding signal (z-score),[17],0.067
same,glycan array binding signal (z-score),[18],0.56
same,glycan array binding signal (z-score),[19],1.99
same,glycan array binding signal (z-score),[20],-0.342
same,glycan array binding signal (z-score),[21],-0.821
same,glycan array binding signal (z-score),[22],-0.366
same,glycan array binding signal (z-score),[23],-0.061
same,glycan array binding signal (z-score),[24],0.353
same,glycan array binding signal (z-score),[25],-0.215
same,glycan array binding signal (z-score),Gal(b1-4)GlcNAc6P,0.917
same,glycan array binding signal (z-score),Gal(b1-6)Gal,-0.495
same,glycan array binding signal (z-score),Gal3S(b1-3)GalNAc,-0.952
same,glycan array binding signal (z-score),Gal3S(b1-3)GlcNAc,0.654
same,glycan array binding signal (z-score),[26],0.375
